Some of the results follow. The main result of the screen is listed elsewhere. These columns were measured beside it and carry no call. Compounds called inactive in the main read-out are mostly missing here. Words in brackets tell the shape of the fitted curve; partial curves, single points and poor fits give uncertain potencies.
test: qHTS Assay for Identifying the Cell-Membrane Permeable IMPase Inhibitors; details: CHO-M1 cells, IP1 accumulation, HTRF TR-FRET ratio; measured here: donor channel 620 nm AC50

**Q.** With CCCCC(c1nnnn1CCOC)N1CCN(Cc2ccccc2)CC1 (configuration not stated) as the molecule, how does the AC50 read?
**A.** 31.6 µM [falling, single point]

**Q.** With CCCCc1n[nH]c2c1C(=O)CC(C)(C)C2 as the molecule, how does the AC50 read?
**A.** 3.98 µM [falling, single point]

**Q.** Which AC50 does the source give for O=C(NCCc1ccccc1)C1CCCN(S(=O)(=O)c2cccnc2)C1 (configuration not stated) here?
**A.** 12.6 µM [falling, partial curve]

**Q.** For Cc1ccnc2nc(C(=O)NCc3cccs3)nn12, which AC50 is on record?
**A.** 5.62 µM [rising, single point]

**Q.** With CSc1ccccc1C(=O)N1CCOCC1 as the molecule, how does the AC50 read?
**A.** 0.126 µM [falling, single point]

**Q.** For c1ccn2c(CNc3ncnc4sccc34)nnc2c1, which AC50 is on record?
**A.** 0.0501 µM [rising, full curve, poor fit]

**Q.** With CCC(CC)NC(=O)CSc1nnc(-c2ccc(OC)cc2)n1C(C)C as the molecule, how does the AC50 read?
**A.** 35.5 µM [falling, single point]

**Q.** Which AC50 does the source give for O=C(O)c1cccc(NC(=S)NC(=O)C(c2ccccc2)c2ccccc2)c1 here?
**A.** 3.98 µM [falling, full curve]

**Q.** With COc1cccc(NC(=O)c2cn(C3CCCCC3)c(=O)c3c2c2ccccc2n3C)c1 as the molecule, how does the AC50 read?
**A.** 3.55 µM [falling, partial curve, poor fit]

**Q.** Which AC50 does the source give for Cc1cc(F)ccc1NC(=O)c1sc2nc(-c3cccs3)ccc2c1N here?
**A.** 5.62 µM [rising, partial curve]

**Q.** With Cc1c(C2N3CC4(C)CN2CC(C)(C3)C4=O)c2ccccc2n1C (configuration not stated) as the molecule, how does the AC50 read?
**A.** 0.0631 µM [rising, partial curve, poor fit]

**Q.** Which AC50 does the source give for NC(=O)NCc1ccc(Cl)cc1 here?
**A.** 2.51 µM [rising, single point]

**Q.** Which AC50 does the source give for COc1ccc(NC(=O)C2CCN(S(=O)(=O)c3cccc4cccnc34)CC2)cc1OC here?
**A.** 35.5 µM [rising, single point]

**Q.** Which AC50 does the source give for CC(C)C(=O)NCCCc1ccccc1 here?
**A.** 5.01 µM [rising, single point]

**Q.** For O=C1CN(C(=O)CSc2nc3cc(Cl)ccc3c(=O)n2Cc2ccccc2)c2ccccc2N1, which AC50 is on record?
**A.** 0.0355 µM [rising, full curve, poor fit]

**Q.** For COc1ccc(NC(=O)Cn2cc(C(=O)C3CC3)c3ccccc32)cc1, which AC50 is on record?
**A.** 5.62 µM [falling, single point]

**Q.** For O=C(NC(=S)Nc1ccc(Cl)cn1)C(c1ccccc1)c1ccccc1, which AC50 is on record?
**A.** 0.0158 µM [falling, full curve, poor fit]

**Q.** For CC(=O)C1=C(C)NC(SCC(=O)c2ccc(Cl)cc2)=C(C#N)C1CC(C)C (configuration not stated), which AC50 is on record?
**A.** 12.6 µM [rising, partial curve]

**Q.** For CCn1c(CCNC(=O)c2ccc(Cl)cc2Cl)n[nH]c1=S, which AC50 is on record?
**A.** 0.794 µM [falling, full curve, poor fit]

**Q.** With Cc1c(Cl)cnc(NC(=O)CSc2nnc(C)n2Cc2ccccc2)c1Cl as the molecule, how does the AC50 read?
**A.** 5.01 µM [falling, single point]

**Q.** With COc1ccc(-n2nc(C(=O)N3CCN(Cc4ccc5c(c4)OCO5)CC3)c3ccccc3c2=O)cc1 as the molecule, how does the AC50 read?
**A.** 4.47 µM [falling, partial curve]

**Q.** Which AC50 does the source give for C=C(C)c1cccc(C(C)(C)NC(=O)NCC2COCCO2)c1 (configuration not stated) here?
**A.** 0.126 µM [rising, full curve, poor fit]

**Q.** For O=C(Nc1ccccc1)c1cc2c(=O)c3ccccc3oc2nc1C(F)(F)F, which AC50 is on record?
**A.** 1.26 µM [rising, partial curve]

**Q.** With CCOC(=O)c1c(-c2ccc(OC)c(OC)c2)csc1NC(=O)c1ccccc1F as the molecule, how does the AC50 read?
**A.** 0.282 µM [falling, full curve]

**Q.** With CC(C)CN(C(=O)COC(=O)Cn1cnc2ccccc2c1=O)C1CCS(=O)(=O)C1 (configuration not stated) as the molecule, how does the AC50 read?
**A.** 12.6 µM [falling, single point]

**Q.** With COC(=O)Cn1ncc2c3ccccc3n(Cc3ccccc3)c2c1=O as the molecule, how does the AC50 read?
**A.** 15.8 µM [falling, partial curve, poor fit]

**Q.** For Cc1c(-c2ccccc2)[n+](=O)c(-c2ccco2)c(C)n1[O-], which AC50 is on record?
**A.** 0.0316 µM [rising, full curve]

**Q.** For COc1cc(OC)c2c(c1)OC(c1ccc(OC)c(OC)c1)C(O)C2=O (configuration not stated), which AC50 is on record?
**A.** 1.78 µM [falling, partial curve, poor fit]

**Q.** Which AC50 does the source give for C=CCN(CC=C)S(=O)(=O)c1ccc(C(=O)Nc2sc3c(c2C(N)=O)CCCCC3)cc1 here?
**A.** 0.0282 µM [rising, full curve, poor fit]

**Q.** With Cc1ccc(/C=C/C(=O)c2c(C)cc(C)[nH]c2=O)cc1 as the molecule, how does the AC50 read?
**A.** 3.98 µM [falling, single point]

**Q.** For CCCCOC(=O)c1ccc(NC2=NS(=O)(=O)c3ccccc32)cc1, which AC50 is on record?
**A.** 3.98 µM [falling, full curve, poor fit]

**Q.** For Cc1ccc(NS(=O)(=O)c2c(C)nc3sccn3c2=O)c(Cl)c1, which AC50 is on record?
**A.** 11.2 µM [falling, single point]

**Q.** With Cc1ccc2c(n1)sc1c(-c3ccccc3)c(C#N)c(N)nc12 as the molecule, how does the AC50 read?
**A.** 3.16 µM [rising, full curve]

**Q.** Which AC50 does the source give for COc1ccccc1N1CCN(c2c(CN3CCCC3)c(=O)oc3ccccc23)CC1 here?
**A.** 0.0141 µM [falling, full curve, poor fit]

**Q.** For CCOC(=O)c1cc2occc2n1CC(=O)N1CCN(C(=O)c2ccco2)CC1, which AC50 is on record?
**A.** 1.41 µM [falling, full curve, poor fit]

**Q.** With O=S(=O)(c1ccc2ccccc2c1)N(CC(O)CN1CCOCC1)c1ccccc1 (configuration not stated) as the molecule, how does the AC50 read?
**A.** 5.01 µM [rising, partial curve, poor fit]

**Q.** Which AC50 does the source give for CC1=NOC2(C1)/C(=N/O)CCC/C2=N\O (configuration not stated) here?
**A.** 3.16 µM [rising, single point]

**Q.** For CCOC(=O)CN(C(=O)CNC(=O)c1cccs1)C(C(=O)NC1CCCCC1)c1cccs1 (configuration not stated), which AC50 is on record?
**A.** 1 µM [falling, full curve]

**Q.** With O=C(Nc1cccc(-c2nc3ccccc3[nH]2)c1)c1ccco1 as the molecule, how does the AC50 read?
**A.** 12.6 µM [falling, partial curve, poor fit]

**Q.** Which AC50 does the source give for CCOc1ccc(CC(=O)Nc2c(C(N)=O)oc3ccccc23)cc1OCC here?
**A.** 1 µM [falling, full curve]

**Q.** Which AC50 does the source give for CCSc1cnn(-c2ccccc2)c(=O)c1SCC here?
**A.** 12.6 µM [rising, partial curve]

**Q.** Which AC50 does the source give for CC1CC(C)(C)NCc2ccccc21 (configuration not stated) here?
**A.** 1.26 µM [falling, full curve, poor fit]
